Consider 1 molecule from US20240092918A1.

Protein sequences, listed by entry. Tags and fused reporters are not part of them. Lines headed by an entry give the natural chain unless they say otherwise; changes in a name come on top.
UniProt P32248: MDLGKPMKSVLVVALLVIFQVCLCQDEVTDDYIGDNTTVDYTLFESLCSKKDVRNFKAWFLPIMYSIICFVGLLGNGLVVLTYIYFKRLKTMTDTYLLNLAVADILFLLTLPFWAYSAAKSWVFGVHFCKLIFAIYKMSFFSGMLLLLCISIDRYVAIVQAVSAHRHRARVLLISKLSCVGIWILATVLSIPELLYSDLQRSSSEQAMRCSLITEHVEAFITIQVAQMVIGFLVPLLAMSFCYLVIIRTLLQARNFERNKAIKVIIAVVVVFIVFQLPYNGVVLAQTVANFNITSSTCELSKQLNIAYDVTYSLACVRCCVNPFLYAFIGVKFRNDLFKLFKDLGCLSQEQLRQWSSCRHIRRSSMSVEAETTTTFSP

The test has as its target Human CCR7 (human) (UniProt P32248). The experiment in a line: FACS on CCR7-carrying cells.

No constants are given. Whether binding was seen depends on the method and setting. Some entries that bind do so weakly or less than the wild type.

B1: 121G12.CysMab.AURIX1 (antibody, human IgG1, kappa, V domains shown)
VH: EVQLVESGGGLVKPGGSLKLSCAASGFTFSTYAMSWVRQTPEKRLEWVATISDGGSYSYYPDNVKGRFTISRDNAKNNLYLQMSHLKSEDTAMYYCARRGSRYEEYYVMDYWGQGTSVTVSS
VL: DIVLTQSPATLSVTPGDSVSLSCRASQSISNNLHWYQQKSHESPKLLIKYASQSISGIPSRFSGSGSGTDFTLSINSVETEDFGMYFCQQSNSWLTFGAGTKLGLKR
modifications: AURIX1 on the engineered cysteines; DAR 3.80
For the molecule B1, the binding entry is “binds”.
